PubChem BioAssay AID1259424 | University of Nebraska Medical Center – 2018
The deposit covers about 14,000 reagents; below is a part drawn at random. 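Higher correlation or smaller distance means closer resemblance to KSR1 loss; control wells, including KSR1 knockdowns, recur on many plates.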 Some reagents were tested in more than one well and are listed for each. Further read-outs or replicates are left out here. Reagent sequences are not shown. Not given: the time to read-out.

Aim: 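Rank knockdowns across the genome by resemblance to the KSR1 depletion profile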 (primary screen)
Cells: human HCT116 colon cancer cells
Reagent: siRNA pool against human genes, 50 nM
Measurement: 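Log2 levels of six mRNAs (branched-DNA multiplex), adjusted by two reference genes and the non-targeting median, then scored against the average KSR1 knockdown pattern as Pearson r and euclidean distance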
Scale: mean correlation with KSR1 profile: higher = expression change more like KSR1 knockdown; mean distance from KSR1 profile: higher = expression change less like KSR1 knockdown

{"target": "NXPH2", "PubChem SID": "SID364005455", "mean correlation with KSR1 profile": -0.907, "mean distance from KSR1 profile": 3.97}
{"target": "GPAT3", "PubChem SID": "SID364004135", "mean correlation with KSR1 profile": 0.605, "mean distance from KSR1 profile": 1.18}
{"target": "ZGRF1", "PubChem SID": "SID364001034", "mean correlation with KSR1 profile": -0.145, "mean distance from KSR1 profile": 2.63}
{"target": "CRYBG2", "PubChem SID": "SID364000682", "mean correlation with KSR1 profile": 0.301, "mean distance from KSR1 profile": 1.8}
{"target": "KPNA3", "PubChem SID": "SID363993465", "mean correlation with KSR1 profile": -0.455, "mean distance from KSR1 profile": 2.12}
{"target": "SERPINF2", "PubChem SID": "SID363992218", "mean correlation with KSR1 profile": 0.167, "mean distance from KSR1 profile": 2.23}
{"target": "DAZ3", "PubChem SID": "SID364001632", "mean correlation with KSR1 profile": -0.0123, "mean distance from KSR1 profile": 1.21}
{"target": "TSEN2", "PubChem SID": "SID364003356", "mean correlation with KSR1 profile": 0.76, "mean distance from KSR1 profile": 1.01}
{"target": "ZNF202", "PubChem SID": "SID363994555", "mean correlation with KSR1 profile": -0.501, "mean distance from KSR1 profile": 2.85}
{"target": "EIF4EBP1", "PubChem SID": "SID363995105", "mean correlation with KSR1 profile": -0.341, "mean distance from KSR1 profile": 1.86}
{"target": "ACTA1", "PubChem SID": "SID363992397", "mean correlation with KSR1 profile": -0.492, "mean distance from KSR1 profile": 2.7}

Continued (2 carried over from the part before).
{"target": "EIF4EBP1", "PubChem SID": "SID363995105", "mean correlation with KSR1 profile": -0.341, "mean distance from KSR1 profile": 1.86}
{"target": "ACTA1", "PubChem SID": "SID363992397", "mean correlation with KSR1 profile": -0.492, "mean distance from KSR1 profile": 2.7}
{"target": "MAP3K11", "PubChem SID": "SID363993597", "mean correlation with KSR1 profile": -0.43, "mean distance from KSR1 profile": 4.52}
{"target": "LIMD2", "PubChem SID": "SID364003367", "mean correlation with KSR1 profile": 0.467, "mean distance from KSR1 profile": 3.23}
{"target": "FAM186B", "PubChem SID": "SID364003787", "mean correlation with KSR1 profile": 0.309, "mean distance from KSR1 profile": 2.01}
{"target": "TAOK2", "PubChem SID": "SID363995739", "mean correlation with KSR1 profile": -0.254, "mean distance from KSR1 profile": 2.08}
{"target": "TAOK2", "PubChem SID": "SID363995739", "mean correlation with KSR1 profile": -0.143, "mean distance from KSR1 profile": 2.21}
{"target": "STX11", "PubChem SID": "SID363994829", "mean correlation with KSR1 profile": -0.0122, "mean distance from KSR1 profile": 1.5}
{"target": "PDSS1", "PubChem SID": "SID363998747", "mean correlation with KSR1 profile": -0.209, "mean distance from KSR1 profile": 2.26}
{"target": "NLRC5", "PubChem SID": "SID364003828", "mean correlation with KSR1 profile": 0.641, "mean distance from KSR1 profile": 1.1}
